B1: HELLS (protein, UniProt Q9NRZ9 1-838, looked up)
Lymphoid-specific helicase: MPAERPAGSGGSEAPAMVEQLDTAVITPAMLEEEEQLEAAGLERERKMLEKARMSWDRESTEIRYRRLQHLLEKSNIYSKFLLTKMEQQQLEEQKKKEKLERKKESLKVKKGKNSIDASEEKPVMRKKRGREDESYNISEVMSKEEILSVAKKNKKENEDENSSSTNLCVEDLQKNKDSNSIIKDRLSETVRQNTKFFFDPVRKCNGQPVPFQQPKHFTGGVMRWYQVEGMEWLRMLWENGINGILADEMGLGKTVQCIATIALMIQRGVPGPFLVCGPLSTLPNWMAEFKRFTPDIPTMLYHGTQEERQKLVRNIYKRKGTLQIHPVVITSFEIAMRDRNALQHCYWKYLIVDEGHRIKNMKCRLIRELKRFNADNKLLLTGTPLQNNLSELWSLLNFLLPDVFDDLKSFESWFDITSLSETAEDIIAKEREQNVLHMLHQILTPFLLRRLKSDVALEVPPKREVVVYAPLSKKQEIFYTAIVNRTIANMFGSSEKETIELSPTGRPKRRTRKSINYSKIDDFPNELEKLISQIQPEVDRERAVVEVNIPVESEVNLKLQNIMMLLRKCCNHPYLIEYPIDPVTQEFKIDEELVTNSGKFLILDRMLPELKKRGHKVLLFSQMTSMLDILMDYCHLRDFNFSRLDGSMSYSEREKNMHSFNTDPEVFIFLVSTRAGGLGINLTAADTVIIYDSDWNPQSDLQAQDRCHRIGQTKPVVVYRLVTANTIDQKIVERAAAKRKLEKLIIHKNHFKGGQSGLNLSKNFLDPKELMELLKSRDYEREIKGSREKVISDKDLELLLDRSDLIDQMNASGPIKEKMGIFKILENSEDSSPECLF
B2: MCM5 (protein, UniProt P33992 2-734, looked up)
DNA replication licensing …: SGFDDPGIFYSDSFGGDAQADEGQARKSQLQRRFKEFLRQYRVGTDRTGFTFKYRDELKRHYNLGEYWIEVEMEDLASFDEDLADYLYKQPAEHLQLLEEAAKEVADEVTRPRPSGEEVLQDIQVMLKSDASPSSIRSLKSDMMSHLVKIPGIIIAASAVRAKATRISIQCRSCRNTLTNIAMRPGLEGYALPRKCNTDQAGRPKCPLDPYFIMPDKCKCVDFQTLKLQELPDAVPHGEMPRHMQLYCDRYLCDKVVPGNRVTIMGIYSIKKFGLTTSRGRDRVGVGIRSSYIRVLGIQVDTDGSGRSFAGAVSPQEEEEFRRLAALPNVYEVISKSIAPSIFGGTDMKKAIACLLFGGSRKRLPDGLTRRGDINLLMLGDPGTAKSQLLKFVEKCSPIGVYTSGKGSSAAGLTASVMRDPSSRNFIMEGGAMVLADGGVVCIDEFDKMREDDRVAIHEAMEQQTISIAKAGITTTLNSRCSVLAAANSVFGRWDETKGEDNIDFMPTILSRFDMIFIVKDEHNEERDVMLAKHVITLHVSALTQTQAVEGEIDLAKLKKFIAYCRVKCGPRLSAEAAEKLKNRYIIMRSGARQHERDSDRRSSIPITVRQLEAIVRIAEALSKMKLQPFATEADVEEALRLFQVSTLDAALSGTLSGVEGFTSQEDQEMLSRIEKQLKRRFAIGSQVSEHSIIKDFTKQKYPEHAIHKVLQLMLRRGEIQHRMQRKVLYRLK
B3: UBTF (protein, UniProt P17480 1-764, looked up)
Nucleolar transcription …: MNGEADCPTDLEMAAPKGQDRWSQEDMLTLLECMKNNLPSNDSSKFKTTESHMDWEKVAFKDFSGDMCKLKWVEISNEVRKFRTLTELILDAQEHVKNPYKGKKLKKHPDFPKKPLTPYFRFFMEKRAKYAKLHPEMSNLDLTKILSKKYKELPEKKKMKYIQDFQREKQEFERNLARFREDHPDLIQNAKKSDIPEKPKTPQQLWYTHEKKVYLKVRPDATTKEVKDSLGKQWSQLSDKKRLKWIHKALEQRKEYEEIMRDYIQKHPELNISEEGITKSTLTKAERQLKDKFDGRPTKPPPNSYSLYCAELMANMKDVPSTERMVLCSQQWKLLSQKEKDAYHKKCDQKKKDYEVELLRFLESLPEEEQQRVLGEEKMLNINKKQATSPASKKPAQEGGKGGSEKPKRPVSAMFIFSEEKRRQLQEERPELSESELTRLLARMWNDLSEKKKAKYKAREAALKAQSERKPGGEREERGKLPESPKRAEEIWQQSVIGDYLARFKNDRVKALKAMEMTWNNMEKKEKLMWIKKAAEDQKRYERELSEMRAPPAATNSSKKMKFQGEPKKPPMNGYQKFSQELLSNGELNHLPLKERMVEIGSRWQRISQSQKEHYKKLAEEQQKQYKVHLDLWVKSLSPQDRAAYKEYISNKRKSMTKLRGPNPKSSRTTLQSKSESEEDDEEDEDDEDEDEEEEDDENGDSSEDGGDSSESSSEDESEDGDENEEDDEDEDDDEDDDEDEDNESEGSSSSSSSSGDSSDSDSN
B4: PDIA4 (protein, UniProt P13667 21-645, looked up)
Protein disulfide-isomerase A4: VAGAEGPDEDSSNRENAIEDEEEEEEEDDDEEEDDLEVKEENGVLVLNDANFDNFVADKDTVLLEFYAPWCGHCKQFAPEYEKIANILKDKDPPIPVAKIDATSASVLASRFDVSGYPTIKILKKGQAVDYEGSRTQEEIVAKVREVSQPDWTPPPEVTLVLTKENFDEVVNDADIILVEFYAPWCGHCKKLAPEYEKAAKELSKRSPPIPLAKVDATAETDLAKRFDVSGYPTLKIFRKGRPYDYNGPREKYGIVDYMIEQSGPPSKEILTLKQVQEFLKDGDDVIIIGVFKGESDPAYQQYQDAANNLREDYKFHHTFSTEIAKFLKVSQGQLVVMQPEKFQSKYEPRSHMMDVQGSTQDSAIKDFVLKYALPLVGHRKVSNDAKRYTRRPLVVVYYSVDFSFDYRAATQFWRSKVLEVAKDFPEYTFAIADEEDYAGEVKDLGLSESGEDVNAAILDESGKKFAMEPEEFDSDTLREFVTAFKKGKLKPVIKSQPVPKNNKGPVKVVVGKTFDSIVMDPKKDVLIEFYAPWCGHCKQLEPVYNSLAKKYKGQKGLVIAKMDATANDVPSDRYKVEGFPTIYFAPSGDKKNPVKFEGGDRDLEHLSKFIEEHATKLSRTKEEL
B5: SLC16A1 (protein, UniProt P53985 1-500, looked up)
Monocarboxylate transporter 1: MPPAVGGPVGYTPPDGGWGWAVVIGAFISIGFSYAFPKSITVFFKEIEGIFHATTSEVSWISSIMLAVMYGGGPISSILVNKYGSRIVMIVGGCLSGCGLIAASFCNTVQQLYVCIGVIGGLGLAFNLNPALTMIGKYFYKRRPLANGLAMAGSPVFLCTLAPLNQVFFGIFGWRGSFLILGGLLLNCCVAGALMRPIGPKPTKAGKDKSKASLEKAGKSGVKKDLHDANTDLIGRHPKQEKRSVFQTINQFLDLTLFTHRGFLLYLSGNVIMFFGLFAPLVFLSSYGKSQHYSSEKSAFLLSILAFVDMVARPSMGLVANTKPIRPRIQYFFAASVVANGVCHMLAPLSTTYVGFCVYAGFFGFAFGWLSSVLFETLMDLVGPQRFSSAVGLVTIVECCPVLLGPPLLGRLNDMYGDYKYTYWACGVVLIISGIYLFIGMGINYRLLAKEQKANEQKKESKEEETSIDVAGKPNEVTKAAESPDQKDTDGGPKEEESPV
B6: KRT6B (protein, UniProt P04259 2-564, looked up)
Keratin, type II cytoskeletal …: ASTSTTIRSHSSSRRGFSANSARLPGVSRSGFSSISVSRSRGSGGLGGACGGAGFGSRSLYGLGGSKRISIGGGSCAISGGYGSRAGGSYGFGGAGSGFGFGGGAGIGFGLGGGAGLAGGFGGPGFPVCPPGGIQEVTVNQSLLTPLNLQIDPAIQRVRAEEREQIKTLNNKFASFIDKVRFLEQQNKVLDTKWTLLQEQGTKTVRQNLEPLFEQYINNLRRQLDNIVGERGRLDSELRNMQDLVEDLKNKYEDEINKRTAAENEFVTLKKDVDAAYMNKVELQAKADTLTDEINFLRALYDAELSQMQTHISDTSVVLSMDNNRNLDLDSIIAEVKAQYEEIAQRSRAEAESWYQTKYEELQITAGRHGDDLRNTKQEIAEINRMIQRLRSEIDHVKKQCANLQAAIADAEQRGEMALKDAKNKLEGLEDALQKAKQDLARLLKEYQELMNVKLALDVEIATYRKLLEGEECRLNGEGVGQVNISVVQSTVSSGYGGASGVGSGLGLGGGSSYSYGSGLGVGGGFSSSSGRATGGGLSSVGGGSSTIKYTTTSSSSRKSYKH
B7: CCDC59 (protein, UniProt Q9P031 1-241, looked up)
Thyroid transcription factor …: MAPVRRSAKWRPGGIEARGEGVSTVGYRNKNVRQKTWRPNHPQAFVGSVREGQGFAFRRKLKIQQSYKKLLRKEKKAQTSLESQFTDRYPDNLKHLYLAEEERHRKQARKVDHPLSEQVHQPLLEEQCSIDEPLFEDQCSFDQPQPEEQCIKTVNSFTIPKKNKKKTSNQKAQEEYEQIQAKRAAKKQEFERRKQEREEAQRQYKKKKMEVFKILNKKTKKGQPNLNVQMEYLLQKIQEKC
B8: PCBP2 (protein, UniProt Q15366 1-365, looked up)
Poly(rC)-binding protein 2: MDTGVIEGGLNVTLTIRLLMHGKEVGSIIGKKGESVKKMREESGARINISEGNCPERIITLAGPTNAIFKAFAMIIDKLEEDISSSMTNSTAASRPPVTLRLVVPASQCGSLIGKGGCKIKEIRESTGAQVQVAGDMLPNSTERAITIAGIPQSIIECVKQICVVMLETLSQSPPKGVTIPYRPKPSSSPVIFAGGQDRYSTGSDSASFPHTTPSMCLNPDLEGPPLEAYTIQGQYAIPQPDLTKLHQLAMQQSHFPMTHGNTGFSGIESSSPEVKGYWGLDASAQTTSHELTIPNDLIGCIIGRQGAKINEIRQMSGAQIKIANPVEGSTDRQVTITGSAASISLAQYLINVRLSSETGGMGSS
B9: LETM1 (protein, UniProt O95202 116-739, looked up)
Mitochondrial proton/calcium …: DDSVVEKSLKSLKDKNKKLEEGGPVYSPPAEVVVKKSLGQRVLDELKHYYHGFRLLWIDTKIAARMLWRILNGHSLTRRERRQFLRICADLFRLVPFLVFVVVPFMEFLLPVAVKLFPNMLPSTFETQSLKEERLKKELRVKLELAKFLQDTIEEMALKNKAAKGSATKDFSVFFQKIRETGERPSNEEIMRFSKLFEDELTLDNLTRPQLVALCKLLELQSIGTNNFLRFQLTMRLRSIKADDKLIAEEGVDSLNVKELQAACRARGMRALGVTEDRLRGQLKQWLDLHLHQEIPTSLLILSRAMYLPDTLSPADQLKSTLQTLPEIVAKEAQVKVAEVEGEQVDNKAKLEATLQEEAAIQQEHREKELQKRSEVAKDFEPERVVAAPQRPGTEPQPEMPDTVLQSETLKDTAPVLEGLKEEEITKEEIDILSDACSKLQEQKKSLTKEKEELELLKEDVQDYSEDLQEIKKELSKTGEEKYVEESKASKRLTKRVQQMIGQIDGLISQLEMDQQAGKLAPANGMPTGENVISVAELINAMKQVKHIPESKLTSLAAALDENKDGKVNIDDLVKVIELVDKEDVHISTSQVAEIVATLEKEEKVEEKEKAKEKAEKEVAEVKS
B10: KDM4D (protein, UniProt Q6B0I6 1-523, looked up)
Lysine-specific demethylase 4D: METMKSKANCAQNPNCNIMIFHPTKEEFNDFDKYIAYMESQGAHRAGLAKIIPPKEWKARETYDNISEILIATPLQQVASGRAGVFTQYHKKKKAMTVGEYRHLANSKKYQTPPHQNFEDLERKYWKNRIYNSPIYGADISGSLFDENTKQWNLGHLGTIQDLLEKECGVVIEGVNTPYLYFGMWKTTFAWHTEDMDLYSINYLHLGEPKTWYVVPPEHGQRLERLARELFPGSSRGCGAFLRHKVALISPTVLKENGIPFNRITQEAGEFMVTFPYGYHAGFNHGFNCAEAINFATPRWIDYGKMASQCSCGEARVTFSMDAFVRILQPERYDLWKRGQDRAVVDHMEPRVPASQELSTQKEVQLPRRAALGLRQLPSHWARHSPWPMAARSGTRCHTLVCSSLPRRSAVSGTATQPRAAAVHSSKKPSSTPSSTPGPSAQIIHPSNGRRGRGRPPQKLRAQELTLQTPAKRPLLAGTTCTASGPEPEPLPEDGALMDKPVPLSPGLQHPVKASGCSWAPVP

System: mSWI/SNF complexes
Test: mSWI/SNF complex purification with HA-tagged baits and mass spectrometry (peptide counts)
Design: species or system human
Settings: 293_HA-BRD7 bait purification, mass spectrometry; for Total: total peptides per co-purified protein; for Unique: unique peptides per co-purified protein

Molecule	Total	Unique
B1	2	2
B2	2	2
B3	2	2
B4	2	2
B5	2	2
B6	2	2
B7	2	2
B8	2	2
B9	2	2
B10	2	2
